These are yes or no findings as the source states them, for the method shown. Some entries that bind do so weakly or less than the wild type. Where a sequence is shown, tags or fusion partners need not be part of it.
Columns and labels:
[1] = molecular target: T1, Rhesus (NHP-2) DR4-Fc (Rhesus) (UniProt F6TP00); assay: ELISA on coated NHP-2 DR4-Fc, detection with Streptavidin-HRP [panel C]
T1 sequence: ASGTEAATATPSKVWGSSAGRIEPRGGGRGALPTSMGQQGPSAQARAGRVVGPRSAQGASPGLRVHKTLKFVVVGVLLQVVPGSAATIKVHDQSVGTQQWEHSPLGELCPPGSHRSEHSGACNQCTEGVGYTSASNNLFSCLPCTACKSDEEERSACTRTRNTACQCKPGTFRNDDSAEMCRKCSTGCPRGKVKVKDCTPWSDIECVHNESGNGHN

Amino acid sequences for entries named in this document (tags omitted). Residues count along the entry.
UniProt P50591, residues 114-281: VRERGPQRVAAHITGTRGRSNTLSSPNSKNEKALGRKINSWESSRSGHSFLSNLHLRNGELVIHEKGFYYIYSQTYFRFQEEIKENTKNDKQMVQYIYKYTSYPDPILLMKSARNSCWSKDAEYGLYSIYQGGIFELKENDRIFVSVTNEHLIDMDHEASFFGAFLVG

mouse DR5-Fc (mouse) [2] = molecular target: T2, mouse DR5-Fc (mouse) (UniProt Q9QZM4); assay: ELISA with biotinylated TRAIL on coated mouse DR5-Fc (Example 7, FIG. 5)
T2 sequence (looked up): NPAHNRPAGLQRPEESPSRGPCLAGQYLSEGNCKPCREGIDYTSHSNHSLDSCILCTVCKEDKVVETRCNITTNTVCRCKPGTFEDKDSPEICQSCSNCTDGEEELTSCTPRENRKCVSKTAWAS

mouse DR5-Fc (mouse) [3] = molecular target: T2, mouse DR5-Fc (mouse); assay: ELISA, 100 ng/well mouse DR5-Fc, 10 nM biotinylated TRAIL, detection HRP-Streptavidin

Measured: binding

biotinylated TRAIL (from UniProt P50591 114-281) (ligand)
binds: [1] | mouse DR5-Fc (mouse) [2] | mouse DR5-Fc (mouse) [3]
